Assay results from article PMC12408736.
For at least one entry, the source does not settle the construct or the ends of the probe.

System: Rap1 (Naumovozyma castellii)
Test: EMSA
Conditions: labeled probe, no competitor; 10 mM Tris-HCl pH 7.5, 7 mM MgCl2, 8% glycerol; 10 fmol probe in 15 µl, ~0.6 µg Rap1 extract, 1.5 µg non-specific competitor (E. coli DNA, salmon sperm DNA, yeast tRNA); recombinant protein; label: 5'-32P (labeled probe), unlabeled as competitor

Sequence: GTCTGGGTGTCTGGGTGTC (double strand) [telomeric ds-probe (19 bp)]
- binding result: binds
